From PubChem BioAssay AID2685 (National Center for Advancing Translational Sciences (NCATS), 2010)
The whole screen tested about 320,000 compounds, of which about 2,100 (0.66%) were called active. This list was built around the results that the source calls inconclusive (neither active nor inactive); the mix of calls is not that of the screen. The call rests on the fitted dose curve; in most records, active means well fitted inhibition curve with a large enough effect in the signal ratio, with a control signal flat (not every such curve was filed as active); inconclusive means small, poorly fitted or top-dose-only effect, or effect the other way, or a change in a side signal; inactive means flat fitted curve, though single readings scatter; the % refers to the signal ratio. Potencies of inconclusive entries are doubtful fits and often do not repeat.

Assay: qHTS Assay for Lipid Storage Modulators in Drosophila S3 Cells
Settings: BODIPY lipid droplet fluorescence, 18-24 h, cells fed with added oleic acid; lipid storage change, negative = inhibition: at 46.1 µM (top of the series) unless noted
Method in brief: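 Drosophila S3 cells got compounds at several concentrations plus oleic acid (400 uM solution). Laser-scanning cytometry with 488 nm excitation read lipid droplets at 500-530 nm and cells at 575-640 nm. Percent activity was relative to 20 uM Triacsin C.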
On the % scale 0 is the no-effect control and ±100 the full control effect; potency means the concentration at half of the fitted maximal effect.

Row | SMILES | lipid storage change, negative = inhibition | Potency
1 | CC(C)Oc1ccc(CCNC(=O)CC2C(=O)NCCN2C)cc1 (centres undefined) | inconclusive: -0.254% | –
2 | CCOCc1c(C(=O)Nc2ccc3nc(N4CCOCC4)sc3c2)oc2ccccc12 | – | inconclusive: 14.6 µM [falling, partial curve, poor fit]
3 | CCOC(=O)c1ccc(NC(=O)c2nc[nH]c2C(=O)NCCCNC(=O)c2[nH]cnc2C(=O)Nc2ccc(C(=O)OCC)cc2)cc1 | – | inconclusive: 25.9 µM [activator, single point]
4 | CN(C)C(=O)CCSc1nnc(-c2ccco2)o1 | inconclusive: 0.246% | –
5 | CC(C)N(Cc1nccn1C)C(=O)CC1C(=O)NCCN1Cc1ccc(F)cc1 (centres undefined) | – | inconclusive: 16.4 µM [activator, partial curve]
6 | Cc1cccc(-n2c(C)c(-c3ccccc3)[nH]c2=S)c1 | – | inconclusive: 10.3 µM [activator, partial curve]
7 | CC(C)(C)C(=O)NC1CCN(CC(=O)Nc2ccc3c(c2)OCO3)CC1 | – | inconclusive: 5.17 µM [activator, full curve]
8 | COCCN(Cc1nc2ccccc2c(=O)[nH]1)C(=O)c1cccc(S(=O)(=O)N2CCCC2)c1 | inconclusive: -66.6% | –
9 | CC(C)n1c(SCc2ccccc2F)nc2c1c(=O)n(C)c(=O)n2C | inconclusive: 0.644% | –
10 | N/C(=N\OC(=O)c1cccs1)c1cccc([N+](=O)[O-])c1 | inconclusive: 4.31% | –
11 | CN1CCC(=NNC(=O)c2ccc(N(Cc3ccccc3Cl)S(C)(=O)=O)cc2)CC1 | – | inconclusive: 9.2 µM [activator, partial curve, poor fit]
12 | S=C(Nc1cccnc1)N1CCCCC1 | inconclusive: -8.7% [cytotoxic] | –
13 | CC(=O)N1N=C(c2ccccc2)CC1c1cn(Cc2ccccc2)c2ccccc12 (centres undefined) | inconclusive: -20.2% | –
14 | CCC(C(=O)NCCc1ccco1)n1nc(C)c2c(C)n(-c3ccccc3)nc2c1=O (centres undefined) | inconclusive: 34.3% | –
15 | COc1ccc(OCCNS(=O)(=O)Cc2ccccc2)cc1 | – | inconclusive: 16.4 µM [activator, partial curve, poor fit]
16 | Cc1cccc(NC(=O)c2cccc(N3C(=O)CCC3=O)c2)c1 | inactive | –
17 | CCCC(C(=O)Nc1ccc(C)c(S(=O)(=O)N2CCOCC2)c1)c1ccccc1 (centres undefined) | – | inconclusive: 29.1 µM [activator, single point]
18 | CC(=O)NC(CC(=O)NC(C)c1ccc(Cl)cc1Cl)c1ccccc1 (centres undefined) | inconclusive: 27.3% | –
19 | O=C(CSc1nc2ccccc2c(=O)[nH]1)N1CCN(c2ccccc2)CC1 | inconclusive: -13% | –
20 | S=C(Nc1ccccc1)Nn1cnnc1 | – | inconclusive: 18.4 µM [falling, partial curve, poor fit]
21 | COC(=O)c1cccc(NS(=O)(=O)c2ccc(OC)cc2)c1C | inconclusive: -11.6% | –
22 | Cc1ccc(Cl)cc1NC(=O)COC(=O)CC1CC2CCC1C2 (centres undefined) | inconclusive: -12.4% | –
23 | O=C(CCCCn1c(=O)c2ccccc2n(Cc2ccccc2)c1=O)NC1CCN(Cc2ccccc2)CC1 | inconclusive: -12.3% | –
24 | COc1ccc(Cc2nnc(NS(=O)(=O)Cc3ccccc3)s2)cc1 | inconclusive: -9.06% | –
25 | CCN(CC(=O)NCc1ccc(Cl)cc1)C(=O)CNS(=O)(=O)c1ccc(NC(C)=O)cc1 | – | inconclusive: 0.651 µM [falling, partial curve, poor fit]
26 | CC(=O)c1ccc(NC(=O)CN2C(=O)NC(C)(c3ccc4c(c3)OCCO4)C2=O)cc1 (centres undefined) | inconclusive: 29.5% | –
27 | N#Cc1ccc(OCC(=O)N(C2CCCCC2)C2CCS(=O)(=O)C2)cc1 (centres undefined) | inconclusive: -35.2% | –

No new results follow: an excerpt of the list.
Row | SMILES | lipid storage change, negative = inhibition | Potency
24 | COc1ccc(Cc2nnc(NS(=O)(=O)Cc3ccccc3)s2)cc1 | inconclusive: -9.06% | –
25 | CCN(CC(=O)NCc1ccc(Cl)cc1)C(=O)CNS(=O)(=O)c1ccc(NC(C)=O)cc1 | – | inconclusive: 0.651 µM [falling, partial curve, poor fit]

Further records follow:

Row | SMILES | lipid storage change, negative = inhibition | Potency
28 | O=C(NCCCN1CCOCC1)C1CCN(S(=O)(=O)c2ccccc2)CC1 | inconclusive | –
29 | CCCN(C(=O)CSc1ncnc2sccc12)c1c(N)n(Cc2ccccc2)c(=O)[nH]c1=O | – | inconclusive: 0.0046 µM [falling, full curve, poor fit]
30 | COc1cc2c(cc1OC)C1O[C@](CCCCN3C(=O)c4ccccc4C3=O)(C2)OC2=C1C(=O)c1ccccc1C2=O | inconclusive: -21.3% [at 9.22 µM] | –
31 | CNC(=S)N1CCN(C(c2ccccc2)c2ccccc2)CC1 | inconclusive: 36.4% | –
32 | CN(C)Cc1cccc([N+](=O)[O-])c1O | inconclusive: 8.67% | –
33 | CC(C)c1cc(NCCCN2CCOCC2)n2c(nc3ccccc32)c1C#N | inconclusive: -2.03% | –
34 | Cc1ccc(NCCC#N)cc1C | inconclusive: -22.3% | –
35 | CCC(=NCCc1c(C)[nH]c2ccc(C)cc12)C1=C(O)CC(c2ccccc2)CC1=O (centres undefined) | inconclusive: -51.8% | –
36 | Cc1ccc(S(=O)(=O)Nc2ccccc2F)cc1C(=O)NNC(=O)c1ccccc1O | inconclusive: -16% | –
37 | CCCOCC(O)CC(Cc1ccccc1)C(=O)NN (centres undefined) | inconclusive: 6.35% | –
38 | NC(=O)CC(NC(=O)c1ccccc1)c1ccc(N2CCC(N3CCCC3)CC2)c([N+](=O)[O-])c1 (centres undefined) | inconclusive: -4.83% | –
39 | O=C(NNc1cc(N2CCOCC2)nc(N2CCOCC2)n1)C12CC3CC(CC(C3)C1)C2 | inconclusive: -12.6% | –
40 | CC1=CC(C)(C)Nc2cc(C)c(C)cc21 | inconclusive: 12.2% | –
41 | CC(C)N1C(=O)CCC1C(=O)N1CCN(c2ccc(F)cc2)CC1 (centres undefined) | inconclusive: -19.4% | –
42 | Cc1ccc(C2=NN(C(=O)c3cccs3)C(c3ccccc3O)C2)cc1 (centres undefined) | inconclusive: -55.9% | –
43 | Cc1cc(C(=O)Nc2c(C)n(C)n(-c3ccccc3)c2=O)on1 | inconclusive: -14.1% | –
44 | COc1cc(/C=C2\SC(=S)N(c3cccnc3)C2=O)ccc1O | inconclusive: 24.1% | –
45 | FC(F)(F)c1cnc(Oc2ccc(-c3nnco3)cc2)c(Cl)c1 | inconclusive: 20.2% | –
46 | CCOc1ccc2[nH]c3c(N4CCN(C(=O)c5ccco5)CC4)ncnc3c2c1 | inconclusive: -25.6% | –
47 | CCOc1ccccc1NC(=O)CSc1nnc(-c2ccco2)o1 | inconclusive: -8.49% | –
48 | Nc1ccc(C(=O)OCc2nc3cc4ccccc4cc3[nH]2)cc1 | inconclusive: -39.2% | –
49 | O=C(OCc1ccccc1)C1=NNC2C(=O)N(c3ccc(Br)cc3)C(=O)C12 (centres undefined) | inconclusive: 5.44% | –
50 | Cc1cc(N(CCO)CCO)ccc1C(c1ccc(N(CCO)CCO)cc1C)c1ccccc1Cl | inconclusive: -18.8% | –
51 | O=C(CN1CCN(Cc2cccc(Cl)c2)C1=O)NCc1ccccn1 | inconclusive: -54.6% | –
52 | CN(C)C1(CNC(=O)C2CCC(=O)N(CCc3ccc(Cl)cc3)C2)CCCCC1 (centres undefined) | inconclusive: 3.13% | –
53 | C[N+]1(CC(=O)OCCCC2CCCCC2)CCCC1 | – | inconclusive: 0.58 µM [falling, full curve]
54 | CCN(CCCNC(=O)C1CCN(S(=O)(=O)N2CCOCC2)CC1)c1cccc(C)c1 | inconclusive: 20.7% | –

Row | SMILES | lipid storage change, negative = inhibition | Potency
55 | Cc1ccccc1NC(=S)NCCO | – | inconclusive: 20.6 µM [cytotoxic, single point]
56 | O=C(O)C1CCCCC1C(=O)Nc1ccc(-c2ccccc2)cc1 (centres undefined) | inconclusive: -19.3% | –
57 | O=C(Nc1ccsc1C(=O)O)c1cccc(Oc2ccccc2)c1 | inconclusive: -16.7% | –
58 | CC(C)(C)NC(=O)CN1C(=O)/C(=C/c2ccccc2)SC1=S | inconclusive: 6.76% | –
59 | CCOC(=O)C1CCCN(C2CC(=O)N(c3ccc(C)c(C)c3)C2=O)C1 (centres undefined) | – | inconclusive: 20.6 µM [activator, single point]
60 | CN(CC(=O)Nc1ccc(Cl)c(C(F)(F)F)c1)C(=O)C1CC(=O)N(Cc2ccco2)C1 (centres undefined) | inconclusive: 25.5% | –
61 | CCOC(=O)N1CCN(C(=O)CCN2C(=O)c3ccccc3S2(=O)=O)CC1 | inconclusive | –
62 | Cc1nc2cc(S(=O)(=O)N(C)C)ccc2n1-c1ccccc1 | – | inconclusive: 9.2 µM [activator, partial curve, poor fit]
63 | Clc1ccccc1CO/N=C1\CCCc2nonc21 | – | inconclusive: 7.31 µM [activator, partial curve, poor fit]
64 | Cc1ccc(NC(=O)CSc2nccn2C)cc1S(=O)(=O)N1CCOCC1 | inconclusive: 65.8% | –
65 | Cc1cc(Nc2ccc(Br)cc2)nc(-c2ccccc2O)n1 | – | active: 1.16 µM
66 | Cc1c(C(=O)OCC(=O)Nc2c(C)n(C)n(-c3ccccc3)c2=O)oc2ccccc12 | inconclusive: -5.64% | –
67 | Cc1c(Cl)cccc1NC(=S)NC1CCCC1 | inconclusive: -27.9% | –
68 | S=c1[nH]c(-c2ccc(Cl)cc2)cs1 | inconclusive: 27.9% | –
69 | Cc1cc(C)c(C#N)c(SCc2ccc(C#N)cc2)n1 | inconclusive: 3.24% | –
70 | O=C(O)C1CC=C(Cl)CC1C(=O)NCc1ccccc1 (centres undefined) | inconclusive: -8.77% | –
71 | Cc1nn(C)c(Cl)c1CN1CCCC(C(=O)Nc2cccc(-n3cccn3)c2)C1 (centres undefined) | inconclusive: 23.5% | –
72 | COc1cccc(/C=N/n2nnnc2N)c1O | inactive | –
73 | O=C1c2ccccc2NC(c2ccco2)N1NS(=O)(=O)c1ccccc1 (centres undefined) | inconclusive: 7.68% | –
74 | CCCCNC(=O)CCC(=O)Nc1ccc2nc(N3CCOCC3)cc(C)c2c1 | – | inconclusive: 29.1 µM [rising, partial curve]
75 | CC1CCN(c2oc(-c3ccccc3Cl)nc2C#N)CC1 | inconclusive: 31.3% | –
76 | CCN(CC)S(=O)(=O)c1cc(OC)c(C)cc1C | inconclusive: 22.6% [at 9.22 µM] | –
77 | O=c1c2[nH]c3ccc(F)cc3c2nc2n1CCS2 | – | inconclusive: 6.51 µM [activator, single point]
78 | Cc1nc(-c2cccc(C(F)(F)F)c2)sc1C(=O)O | inconclusive: 3.89% | –
79 | NNC(=O)c1n[nH]c(=O)c2ccccc12 | – | inconclusive: 29.1 µM [rising, single point]

Full records, quoted from the list.
`COc1ccc(OCCNS(=O)(=O)Cc2ccccc2)cc1` is listed with Potency: inconclusive: 16.4 µM [activator, partial curve, poor fit]
`CN(C)C1(CNC(=O)C2CCC(=O)N(CCc3ccc(Cl)cc3)C2)CCCCC1` (centres undefined) is listed with lipid storage change, negative = inhibition: inconclusive: 3.13%
`CCCN(C(=O)CSc1ncnc2sccc12)c1c(N)n(Cc2ccccc2)c(=O)[nH]c1=O` is listed with Potency: inconclusive: 0.0046 µM [falling, full curve, poor fit]
`CCN(CC(=O)NCc1ccc(Cl)cc1)C(=O)CNS(=O)(=O)c1ccc(NC(C)=O)cc1` is listed with Potency: inconclusive: 0.651 µM [falling, partial curve, poor fit]
